# According to patent publication US20060063747A1, “Paroxetine cholate or cholic acid derivative salts, and composition comprising paroxetine and cholic acid or derivative thereof” (priority 2004, published 2006):
# Where a name gives a salt, the structure may show the parent alone.
# Test: Taste comparison of solid drug in the mouth by three panelists
# Details: for Rejection by the panelists: 5 mg solid drug in the mouth; for Initial taste (within one min.) / Later taste (after one min.): 5 mg solid drug, no excipient, water or solvent; for Initial taste (within one min.): in the mouth; for Later taste (after one min.): in the mouth up to 10 minutes
Compound,Rejection by the panelists,Initial taste (within one min.),Later taste (after one min.)
"Fc1ccc([C@@H]2CCNC[C@H]2COc2ccc3c(c2)OCO3)cc1 [Paroxetine HCl, paroxetine hydrochloride]",strong rejection,Very bitter taste,Irritating pain caused
Fc1ccc([C@@H]2CCNC[C@H]2COc2ccc3c(c2)OCO3)cc1.O=C(O)[C@H]1OC(O)[C@H](O)[C@@H](O)[C@@H]1O [Paroxetine glucuronate],,Bitter taste,Irritating pain caused
"C[C@H](CCC(=O)NCC(=O)O)[C@H]1CC[C@H]2[C@@H]3[C@H](O)C[C@@H]4C[C@H](O)CC[C@]4(C)[C@H]3C[C@H](O)[C@]12C.Fc1ccc([C@@H]2CCNC[C@H]2COc2ccc3c(c2)OCO3)cc1 [Paroxetine glycocholate, paroxetine glycocholate]",no rejection,No taste,No pain
Fc1ccc([C@@H]2CCNC[C@H]2COc2ccc3c(c2)OCO3)cc1.O=S(=O)(O)c1ccc2ccccc2c1 [Paroxetine napsylate],,Very bitter taste,Irritating pain caused
Fc1ccc([C@@H]2CCNC[C@H]2COc2ccc3c(c2)OCO3)cc1.Fc1ccc([C@@H]2CCNC[C@H]2COc2ccc3c(c2)OCO3)cc1.O.O=C(O)C(O)C(O)C(=O)O.O=C(O)C(O)C(O)C(=O)O [Paroxetine tartarate],,Very bitter taste,Irritating pain caused
paroxetine methanesulfonate,strong rejection,Very bitter taste,Irritating pain caused
